The supplement of paper PMC4604168 (melanoma cell lines)
Some of the results follow. Many values rest on one well or one pass, so single values are uncertain.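 The apoptosis fraction was the count of cleaved-PARP antibody-stained nuclei relative to all DNA-stained nuclei, imaged in 1,536-well plates. Screening doses were set so most cells survived, and baseline and induced cleaved-PARP levels vary greatly across cell lines.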

Test system: RPMI7951
Assay: cleaved PARP positive nuclei fraction relative to DMSO control; melanoma cells; higher = more apoptosis
Details: library dose: low library concentration; 72 h

`Cc1cc(Nc2cc(N3CCN(C)CC3)nc(Sc3ccc(NC(=O)C4CC4)cc3)n2)n[nH]1` [Tozasertib] + Cc1cc(Nc2cc(N3CCN(C)CC3)nc(/C=C/c3ccccc3)n2)n[nH]1 [ENMD2076] (first compound 0.006 µM, partner dose 0.04 µM) was tested. Which “cleaved PARP positive nuclei fraction” value did it give?
Its value is 135%.

How did the “cleaved PARP positive nuclei fraction” value turn out when `O=C(Nc1cc(C(F)(F)F)cc(C(F)(F)F)c1)c1cc(Cl)ccc1O` + C[C@]1(c2nc3c(C(N)=O)cccc3[nH]2)CCCN1 [Veliparib] (first compound 0.016 µM, partner dose 1.4 µM) was run?
Its value is 194%.

With `O=C(Nc1cc(C(F)(F)F)cc(C(F)(F)F)c1)c1cc(Cl)ccc1O` + Nc1ncn([C@H]2C[C@H](O)[C@@H](CO)O2)c(=O)n1 [decitabine] (first compound 0.016 µM, partner dose 0.1 µM) as the compound, how does the “cleaved PARP positive nuclei fraction” value read?
Its value is 42%.

With `CC[C@]1(O)C[C@H]2CN(CCc3c([nH]c4ccccc34)[C@@](C(=O)OC)(c3cc4c(cc3OC)N(C=O)[C@H]3[C@@](O)(C(=O)OC)[C@H](OC(C)=O)[C@]5(CC)C=CCN6CC[C@]43[C@@H]65)C2)C1` [vincristine] + Cn1c(Nc2ccc(C(F)(F)F)cc2)nc2cc(Oc3ccnc(-c4ncc(C(F)(F)F)[nH]4)c3)ccc21 [CHIR265] (first compound 0.0001 µM, partner dose 0.08 µM) as the compound, how does the “cleaved PARP positive nuclei fraction” value read?
Its value is 425%.

Which “cleaved PARP positive nuclei fraction” value does the source give for `Cc1cc(Nc2cc(N3CCN(C)CC3)nc(Sc3ccc(NC(=O)C4CC4)cc3)n2)n[nH]1` [Tozasertib] + N#CC[C@H](C1CCCC1)n1cc(-c2ncnc3[nH]ccc23)cn1 [ruxolitinib] (first compound 0.006 µM, partner dose 1 µM) here?
The value was 69.5%.

For `CC[C@]1(O)C[C@H]2CN(CCc3c([nH]c4ccccc34)[C@@](C(=O)OC)(c3cc4c(cc3OC)N(C=O)[C@H]3[C@@](O)(C(=O)OC)[C@H](OC(C)=O)[C@]5(CC)C=CCN6CC[C@]43[C@@H]65)C2)C1` [vincristine] + C=C(c1ccc(C(=O)O)cc1)c1cc2c(cc1C)C(C)(C)CCC2(C)C [Bexarotene] (first compound 0.0001 µM, partner dose 2 µM), which “cleaved PARP positive nuclei fraction” value is on record?
The value was 47.3%.

For `O=C(/C=C/c1cccnc1)NCCCCC1CCN(C(=O)c2ccccc2)CC1` + C#Cc1cccc(Nc2ncnc3cc(OCCOC)c(OCCOC)cc23)c1 [erlotinib] (first compound 0.01 µM, partner dose 0.8 µM), which “cleaved PARP positive nuclei fraction” value is on record?
Its value is 144%.

With `Cc1cn(-c2cc(NC(=O)c3ccc(C)c(Nc4nccc(-c5cccnc5)n4)c3)cc(C(F)(F)F)c2)cn1` [nilotinib] + CO[C@H]1C[C@@H]2CC[C@@H](C)[C@@](O)(O2)C(=O)C(=O)N2CCCC[C@H]2C(=O)O[C@H]([C@H](C)C[C@@H]2CC[C@@H](OCCO)[C@H](OC)C2)CC(=O)[C@H](C)/C=C(\C)[C@@H](O)[C@@H](OC)C(=O)[C@H](C)C[C@H](C)/C=C/C=C/C=C/1C [everolimus] (first compound 0.2 µM, partner dose 0.02 µM) as the compound, how does the “cleaved PARP positive nuclei fraction” value read?
The value was 86.6%.

How did the “cleaved PARP positive nuclei fraction” value turn out when `O=C(Nc1cc(C(F)(F)F)cc(C(F)(F)F)c1)c1cc(Cl)ccc1O` + Cn1c(Nc2ccc(C(F)(F)F)cc2)nc2cc(Oc3ccnc(-c4ncc(C(F)(F)F)[nH]4)c3)ccc21 [CHIR265] (first compound 0.016 µM, partner dose 0.08 µM) was run?
Its value is 140%.

`O=c1[nH]nc(Sc2ncc([N+](=O)[O-])s2)n1-c1ccc2c(c1)OCCO2` + OCc1c[nH]c2ccccc12 [Indole-3-carbinol] (first compound 0.2 µM, partner dose 0.8 µM) was tested. Which “cleaved PARP positive nuclei fraction” value did it give?
The value was 97.2%.

With `O=C(/C=C/c1cccnc1)NCCCCC1CCN(C(=O)c2ccccc2)CC1` + CO[C@H]1C[C@@H]2CC[C@@H](C)[C@@](O)(O2)C(=O)C(=O)N2CCCC[C@H]2C(=O)O[C@H]([C@H](C)C[C@@H]2CC[C@@H](OCCO)[C@H](OC)C2)CC(=O)[C@H](C)/C=C(\C)[C@@H](O)[C@@H](OC)C(=O)[C@H](C)C[C@H](C)/C=C/C=C/C=C/1C [everolimus] (first compound 0.01 µM, partner dose 0.02 µM) as the compound, how does the “cleaved PARP positive nuclei fraction” value read?
The value was 40%.

`O=c1[nH]nc(Sc2ncc([N+](=O)[O-])s2)n1-c1ccc2c(c1)OCCO2` + CS(=O)(=O)CCNCc1ccc(-c2ccc3ncnc(Nc4ccc(OCc5cccc(F)c5)c(Cl)c4)c3c2)o1 [lapatinib] (first compound 0.2 µM, partner dose 0.8 µM) was tested. Which “cleaved PARP positive nuclei fraction” value did it give?
Its value is 81.8%.
